Data as given in patent publication US20100113339A1.
These are yes or no findings as the source states them, for the method shown. Some results given as binding are weak or reduced against the parent protein; the word gives no strength.

The chains behind the UniProt entries cited, without tags or fusion partners. Residues count along the entry.
UniProt P02768, residues 25-609: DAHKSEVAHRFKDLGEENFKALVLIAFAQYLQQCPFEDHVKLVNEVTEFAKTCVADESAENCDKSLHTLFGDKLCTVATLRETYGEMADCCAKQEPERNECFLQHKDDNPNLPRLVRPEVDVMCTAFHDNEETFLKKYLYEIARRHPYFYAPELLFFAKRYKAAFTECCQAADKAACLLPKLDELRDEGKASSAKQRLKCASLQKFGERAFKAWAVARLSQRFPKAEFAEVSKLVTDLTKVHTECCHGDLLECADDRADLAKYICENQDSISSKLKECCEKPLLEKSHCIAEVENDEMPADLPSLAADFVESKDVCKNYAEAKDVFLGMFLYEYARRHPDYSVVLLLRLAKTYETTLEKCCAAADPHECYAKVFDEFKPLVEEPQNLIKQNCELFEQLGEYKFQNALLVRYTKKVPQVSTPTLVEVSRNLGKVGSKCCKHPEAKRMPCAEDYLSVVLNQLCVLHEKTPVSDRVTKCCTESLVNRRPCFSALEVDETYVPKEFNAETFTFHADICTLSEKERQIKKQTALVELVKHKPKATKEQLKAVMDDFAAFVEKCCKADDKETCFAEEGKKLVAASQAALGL
UniProt P07724, residues 25-608: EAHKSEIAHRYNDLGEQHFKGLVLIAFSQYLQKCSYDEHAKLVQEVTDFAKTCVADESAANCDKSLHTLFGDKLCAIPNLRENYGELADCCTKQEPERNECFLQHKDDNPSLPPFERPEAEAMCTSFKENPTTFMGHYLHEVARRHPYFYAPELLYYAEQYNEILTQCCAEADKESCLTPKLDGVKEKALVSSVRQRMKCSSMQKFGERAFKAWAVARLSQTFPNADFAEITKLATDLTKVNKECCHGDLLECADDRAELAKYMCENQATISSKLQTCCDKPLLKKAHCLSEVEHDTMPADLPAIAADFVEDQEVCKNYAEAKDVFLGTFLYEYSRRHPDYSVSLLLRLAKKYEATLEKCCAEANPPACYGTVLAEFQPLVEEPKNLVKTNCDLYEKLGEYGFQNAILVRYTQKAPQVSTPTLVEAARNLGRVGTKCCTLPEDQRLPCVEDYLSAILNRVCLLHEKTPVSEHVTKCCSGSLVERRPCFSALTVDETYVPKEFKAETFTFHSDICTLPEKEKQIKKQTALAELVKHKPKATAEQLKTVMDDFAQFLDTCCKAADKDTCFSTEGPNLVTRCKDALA
UniProt Q28522, residues 17-600: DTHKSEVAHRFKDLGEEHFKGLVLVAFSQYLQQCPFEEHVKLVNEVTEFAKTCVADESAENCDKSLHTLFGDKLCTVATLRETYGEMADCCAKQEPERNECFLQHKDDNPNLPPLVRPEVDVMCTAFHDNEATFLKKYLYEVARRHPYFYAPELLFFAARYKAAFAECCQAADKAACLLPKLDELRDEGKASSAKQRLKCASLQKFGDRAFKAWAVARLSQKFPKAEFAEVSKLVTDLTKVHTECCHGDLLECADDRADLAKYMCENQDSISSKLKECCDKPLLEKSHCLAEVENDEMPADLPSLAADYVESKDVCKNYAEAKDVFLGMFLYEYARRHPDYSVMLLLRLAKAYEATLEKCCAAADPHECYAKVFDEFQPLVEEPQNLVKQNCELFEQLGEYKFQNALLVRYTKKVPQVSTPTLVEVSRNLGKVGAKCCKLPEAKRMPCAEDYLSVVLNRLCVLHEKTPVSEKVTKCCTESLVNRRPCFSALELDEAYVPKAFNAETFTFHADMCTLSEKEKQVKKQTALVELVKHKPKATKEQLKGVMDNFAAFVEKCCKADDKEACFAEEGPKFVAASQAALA

Assays:
Experiment in all cases: SPR Biacore 3000, albumin on CM5 chip, one nanobody concentration; ranked by koff, position 6 of 7, class A
[1] = molecular target: human serum albumin (human) (UniProt P02768)
[2] = molecular target: mouse serum albumin (mouse) (UniProt P07724)
[3] = molecular target: rhesus serum albumin (rhesus) (UniProt Q28522)

Measured: binding

B1: PMP6A5 (VHH)
VHH: QVQLAESGGGLVQPGGSLRLTCTASGFTFGSFGMSWVRQAPGEGLEWVSAISADSSDKRYADSVKGRFTISRDNAKKMLYLEMNSLKSEDTAVYYCVIGRGSPASQGTQVTVSS
binds: [1] | [2] | [3]
